{
  "sequences": {"note": "Sequences of proteins named here, by UniProt entry; tags and fusion partners are left off. A change or cut given only in a name is not applied to a line headed by its entry.", "UniProt P18054": "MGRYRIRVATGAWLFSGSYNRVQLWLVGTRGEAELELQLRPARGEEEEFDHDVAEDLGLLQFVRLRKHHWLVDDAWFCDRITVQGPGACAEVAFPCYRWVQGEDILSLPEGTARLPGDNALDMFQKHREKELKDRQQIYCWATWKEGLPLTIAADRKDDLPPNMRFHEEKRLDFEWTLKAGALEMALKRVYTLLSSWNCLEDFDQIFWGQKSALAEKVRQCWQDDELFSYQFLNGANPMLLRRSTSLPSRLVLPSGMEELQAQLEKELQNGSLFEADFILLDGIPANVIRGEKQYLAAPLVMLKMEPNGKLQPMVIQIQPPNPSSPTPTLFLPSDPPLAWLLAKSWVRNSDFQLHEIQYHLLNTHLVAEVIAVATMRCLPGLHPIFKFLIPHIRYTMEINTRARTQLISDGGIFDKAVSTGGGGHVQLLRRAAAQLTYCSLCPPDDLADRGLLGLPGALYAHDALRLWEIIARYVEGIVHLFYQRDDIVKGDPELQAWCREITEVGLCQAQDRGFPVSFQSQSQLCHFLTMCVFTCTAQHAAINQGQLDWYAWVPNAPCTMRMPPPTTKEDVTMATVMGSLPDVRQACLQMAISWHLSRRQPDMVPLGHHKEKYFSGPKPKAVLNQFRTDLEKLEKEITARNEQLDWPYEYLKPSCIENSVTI"},
  "source": "PubChem BioAssay AID1671190",
  "about": "(National Center for Advancing Translational Sciences (NCATS), 2021)",
  "note": "The whole screen tested about 580,000 compounds, of which about 6,100 (1.1%) were called active. The shares of active, inactive and inconclusive entries below differ from those in the screen. The call rests on the fitted dose curve; in most records, active means well fitted inhibition curve with a large enough effect; inconclusive means small, poorly fitted or top-dose-only effect, or another doubt; inactive means no such curve, though single readings can be large or run the other way. Potencies of inconclusive entries are doubtful fits and often do not repeat. On the % scale 0 is the no-effect control and ±100 the full control effect; potency means the concentration at half of the fitted maximal effect.",
  "data": [
    {"biological_target": "Polyunsaturated fatty acid lipoxygenase ALOX12 (Homo sapiens) (UniProt P18054)", "assay": "Primary qHTS assay for inhibitors of human arachidonate 12S-lipoxygenase (ALOX12): Round 2", "details": "purified 12hLO, xylenol orange hydroperoxide absorbance; activity change, negative = inhibition: at 108 µM (top of the series) unless noted", "outline": "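Hydroperoxide product was detected by ferrous iron/xylenol orange as the 573 to 405 nm absorbance ratio. Arachidonic acid at 40 uM (final) was turned over for 30 min at room temperature by 150 nM human 12hLO, pH 7.0 Hepes buffer, after 15 min compound preincubation.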", "values": [
      {"smiles": "CCCCSc1nc2sc3c(c2c(=O)[nH]1)CCC3", "activity change, negative = inhibition": "inactive: 14.6%"},
      {"smiles": "COC(=O)c1cc(O)cc(C(=O)OC)c1", "activity change, negative = inhibition": "inactive: 0%"},
      {"smiles": "CCc1ccccc1NC(=O)CSc1nc(-c2ccccc2)nc2cc(=O)[nH]n12", "activity change, negative = inhibition": "inactive: -16.8%"},
      {"smiles": "O=C1CSC(c2ccccc2O)N1Cc1ccccc1", "note": "(centres undefined)", "activity change, negative = inhibition": "inactive: -27.7%"},
      {"smiles": "FC(F)(F)c1ccc(C=Nc2cccc3ccccc23)cc1", "Potency": "inconclusive: 3.16 µM [inhibitor, full curve, poor fit]"},
      {"smiles": "CCOc1ccc(N/C(C)=C/C(=O)c2ccc(C)o2)cc1", "Potency": "inconclusive: 28.2 µM [inhibitor, partial curve, poor fit]"},
      {"smiles": "COc1ccc(-c2ccc3nnc(CNC(=O)c4ccoc4)n3n2)cc1", "activity change, negative = inhibition": "inactive: 27%"},
      {"smiles": "COc1cc(SC)ccc1C(=O)Nc1cccc(C)n1", "activity change, negative = inhibition": "inactive: 16%"},
      {"smiles": "CCOc1ccc(Oc2ccccc2NC(=O)c2cccc(CN3CCCC3=O)c2)cc1", "Potency": "inconclusive: 50.1 µM [inhibitor, partial curve, poor fit]"},
      {"smiles": "O=C(Oc1ccc(C(=S)N2CCOCC2)cc1)c1ccccc1[N+](=O)[O-]", "activity change, negative = inhibition": "inactive: 14.2%"},
      {"smiles": "CCCn1c2c(c(=O)n(C)c1=O)C(c1ccccc1C)C1=C(COC1=O)N2", "note": "(centres undefined)", "activity change, negative = inhibition": "inactive: -15.5%"},
      {"smiles": "CN(CC(=O)Nc1ccc(Cl)cc1)Cc1nc2cc(Cl)ccc2c(=O)[nH]1", "Potency": "inconclusive: 10 µM [inhibitor, full curve, poor fit]"},
      {"smiles": "COc1ccc(-c2nc(C(C)C)nc3c2CCN(C(=O)Cc2ccc(F)cc2)CC3)cc1", "Potency": "inconclusive: 79.4 µM [inhibitor, partial curve, poor fit]"},
      {"smiles": "COc1ccc2oc(=O)c(-c3cn4cccc(C)c4n3)cc2c1", "activity change, negative = inhibition": "inactive: -9.65%"},
      {"smiles": "Cc1ccc2c(c1C)NC(=O)C21N2CCCC2C(C(=O)c2ccc3ccccc3c2)C12C(=O)Nc1ccccc12", "note": "(centres undefined)", "activity change, negative = inhibition": "inactive: -7.59%"},
      {"smiles": "Cc1cccc(C(=O)NCCc2nnc(SCC(=O)Nc3cccc(C(=O)O)c3)n2C)c1", "Potency": "inconclusive: 44.7 µM [inhibitor, partial curve, poor fit]"},
      {"smiles": "O=C1C(Cl)=C(O)C2(Cl)C(Cl)=C(Cl)C12Cl", "note": "(centres undefined)", "Potency": "inconclusive: 89.1 µM [inhibitor, single point]"},
      {"smiles": "CCCN(Cc1cc2cc(C)ccc2[nH]c1=O)C(=O)c1ccccn1", "activity change, negative = inhibition": "inactive: -1.04%"},
      {"smiles": "COc1cccc(C2C(C(=O)c3sc(C)nc3C)=C(O)C(=O)N2CCN2CCOCC2)c1OC", "note": "(centres undefined)", "Potency": "inconclusive: 35.5 µM [inhibitor, partial curve, poor fit]"},
      {"smiles": "CCOc1ccc(NC(=O)CSc2ncc3c(n2)-c2ccccc2N(Cc2ccccc2C)S3(=O)=O)cc1", "Potency": "inconclusive: 89.1 µM [inhibitor, partial curve, poor fit]"},
      {"smiles": "COc1ccc(C(=O)OC(C)CN2CCN(C)CC2)cc1", "note": "(centres undefined)", "Potency": "inconclusive: 50.1 µM [inhibitor, partial curve, poor fit]"},
      {"smiles": "CSc1nsc2nc(=O)c(/C=C3\\C=Nc4ccccc43)c(N)n12", "activity change, negative = inhibition": "inactive: -0.33%"},
      {"smiles": "COc1ccccc1C(=O)NNC(=O)C(=O)NC1CCCCC1", "activity change, negative = inhibition": "inactive: -3.69%"},
      {"smiles": "Cc1cccc(C)c1OCC(=O)Nn1c(C)nc2ccccc2c1=O", "Potency": "inconclusive: 0.355 µM [inhibitor, full curve, poor fit]"},
      {"smiles": "Cc1ccc(OCC(=O)Nc2cc(NC(=O)COc3ccc(C)c(C)c3)cc(C(=O)O)c2)cc1C", "Potency": "inconclusive: 50.1 µM [inhibitor, partial curve, poor fit]"},
      {"smiles": "S=C(NNc1nc(Nc2ccccc2)nc(N2CCCCC2)n1)NC1CCCCC1", "Potency": "inconclusive: 44.7 µM [inhibitor, partial curve, poor fit]"},
      {"smiles": "CCCNc1cc(N2CCC(CCC(=O)NCc3ccc(Cl)cc3)CC2)ncn1", "Potency": "inconclusive: 63.1 µM [inhibitor, partial curve, poor fit]"},
      {"smiles": "COc1ccc(-n2c(=O)c(CCC(=O)N3CCN(c4ccccc4O)CC3)nc3ccccc32)cc1", "Potency": "inconclusive: 56.2 µM [inhibitor, partial curve, poor fit]"},
      {"smiles": "O=C(NNC(=O)c1cccnc1SCc1cccc([N+](=O)[O-])c1)c1cccnc1", "activity change, negative = inhibition": "inactive: 9.92%"},
      {"smiles": "C#Cc1cccc(Nc2ncnc3cc(OC)c(OC)cc23)c1", "Potency": "inconclusive: 31.6 µM [inhibitor, partial curve, poor fit]"},
      {"smiles": "CCc1ccc(C(=O)/C=C/c2cccc([N+](=O)[O-])c2)cc1", "activity change, negative = inhibition": "inactive: 2.43%"},
      {"smiles": "C/C(=N\\NC(=O)c1nn(C)c(C)c1Br)c1cccc(NC(=O)c2ccc(F)cc2)c1", "activity change, negative = inhibition": "inactive: 13.1%"},
      {"smiles": "CCOc1ccccc1C(=O)NC1CCN(Cc2nnnn2C2CCCC2)CC1", "activity change, negative = inhibition": "inactive: -8.27%"},
      {"smiles": "CCN(CC)c1ccc(NC(=O)/C=C\\c2ccccc2Cl)cc1", "Potency": "inconclusive: 11.2 µM [inhibitor, partial curve, poor fit]"},
      {"smiles": "CN1CCN(C(=S)Nc2cc([N+](=O)[O-])ccc2Cl)CC1", "Potency": "inconclusive: 70.8 µM [inhibitor, single point]"},
      {"smiles": "Cc1ccc(C2(O)C(=O)c3ccccc3C2=O)c(O)c1C", "Potency": "inconclusive: 112 µM [inhibitor, single point]"},
      {"smiles": "Cc1ccc(O)c(CNc2ccccn2)c1", "activity change, negative = inhibition": "inactive: -15.5%"},
      {"smiles": "COc1cccc(S(=O)(=O)Nc2cccc(C(=O)N3CCCC3)c2)c1", "activity change, negative = inhibition": "inactive: 17.3%"},
      {"smiles": "Cc1ccc(S(=O)(=O)n2ccc3c2CCCC3=O)cc1", "activity change, negative = inhibition": "inactive: 0%"},
      {"smiles": "COc1cc(-c2nc3nc(C)cc(C)n3c2Nc2ccc(Cl)cc2)ccc1O", "activity change, negative = inhibition": "inactive: -7.45%"},
      {"smiles": "Cc1c(O)c2c(c(C(=O)/C=C/c3ccccc3)c1O)OC(C)(C)C=C2", "Potency": "inconclusive: 89.1 µM [inhibitor, single point]"},
      {"smiles": "COc1ccc2c(CC(=O)OCC(=O)Nc3cccc(C)c3)coc2c1", "Potency": "inconclusive: 112 µM [inhibitor, single point]"},
      {"smiles": "CCC(C)(C(=O)NC1CCCCC1)N(C(=O)c1ccccn1)c1ccc(C)cc1", "note": "(centres undefined)", "Potency": "inconclusive: 31.6 µM [inhibitor, partial curve, poor fit]"},
      {"smiles": "CCCCNc1cccc2c1S(=O)(=O)N[C@H](C)CO2", "Potency": "inconclusive: 63.1 µM [inhibitor, partial curve, poor fit]"},
      {"smiles": "Cc1occc1C(=O)Nc1nccs1", "Potency": "inconclusive: 126 µM [inhibitor, partial curve, poor fit]"},
      {"smiles": "O=C(NC1CCCCCC1)C1CCCN(C(=O)Cc2c[nH]c3ccccc23)C1", "note": "(centres undefined)", "Potency": "inconclusive: 50.1 µM [inhibitor, partial curve, poor fit]"},
      {"smiles": "COc1ccc(C2C(C#N)=C(N)N(c3ccccc3)C3=C2C(=O)CCC3)cc1Cn1cc([N+](=O)[O-])cn1", "note": "(centres undefined)", "Potency": "inconclusive: 28.2 µM [inhibitor, single point]"},
      {"smiles": "O=C(O)c1ccc(Cn2ccc3ccccc32)o1", "Potency": "inconclusive: 79.4 µM [inhibitor, single point]"},
      {"smiles": "COC(=O)c1cccc(-n2c(CCC(=O)O)ccc2-c2cccs2)c1", "Potency": "inactive"},
      {"smiles": "Cn1c(C(=O)N2CCN(c3ccccn3)CC2)nc2nc(-c3ccccc3)c(Cl)cc21", "Potency": "inconclusive: 31.6 µM [inhibitor, full curve]"},
      {"smiles": "COc1ccccc1CNc1nc(-c2cc(C)n(C3CC3)c2C)cs1", "Potency": "inconclusive: 44.7 µM [inhibitor, partial curve, poor fit]"},
      {"smiles": "CC1(C)CC(=O)C(C(C2=C(O)CC(C)(C)CC2=O)c2ccc(Br)s2)C(=O)C1", "note": "(centres undefined)", "Potency": "active: 15.8 µM"},
      {"smiles": "CCOC(=O)Nc1ccc2c(c1)Nc1ccccc1S2", "Potency": "inconclusive: 28.2 µM [inhibitor, partial curve, poor fit]"},
      {"smiles": "Cc1csc(NC(=O)CSc2nnc(Cn3c(=O)sc4ccccc43)n2-c2ccccc2)n1", "activity change, negative = inhibition": "inactive: 379%"},
      {"smiles": "COc1ccc(Cn2c(C(=O)O)c(CNCc3ccc(C)o3)c3ccc(C)cc32)cc1", "Potency": "inconclusive: 100 µM [inhibitor, partial curve, poor fit]"},
      {"smiles": "CCCNC(=O)C(C)SCc1coc(-c2ccc(Cl)cc2)n1", "note": "(centres undefined)", "activity change, negative = inhibition": "inactive: 8.18%"},
      {"smiles": "O=C(c1ccc(Cl)cc1)c1oc2ccccc2c1CS(=O)c1ccccc1", "note": "(centres undefined)", "Potency": "inconclusive: 10 µM [inhibitor, full curve, poor fit]"},
      {"smiles": "COc1cccc(C2Cn3nnc(-c4nc(-c5cccc(F)c5)no4)c3CO2)c1", "note": "(centres undefined)", "activity change, negative = inhibition": "inactive: -0.955%"},
      {"smiles": "COC(=O)c1cc(CNC(=O)c2ccccc2OCc2c(C)noc2C)ccc1OC", "Potency": "inconclusive: 1.26 µM [inhibitor, full curve, poor fit]"},
      {"smiles": "CN(CC(=O)N1CCN(c2oc(-c3ccco3)nc2C#N)CC1)Cc1cccc(Cl)c1Cl", "Potency": "inconclusive: 35.5 µM [inhibitor, partial curve]"},
      {"smiles": "Cc1ccc(C)n1-c1cc(S(=O)(=O)N2CCOCC2)ccc1N1CCCC1", "Potency": "inconclusive: 5.62 µM [inhibitor, full curve]"},
      {"smiles": "CCCCCN(C(=O)CCC(=O)OCC(=O)N(CC#N)c1ccccc1)c1c(N)n(CCCC)c(=O)[nH]c1=O", "Potency": "inconclusive: 2 µM [inhibitor, full curve, poor fit]"},
      {"smiles": "COc1ccc(NC(=O)c2cc(-c3ccc(C)o3)nc3ccccc23)cc1OC", "Potency": "inconclusive: 79.4 µM [inhibitor, partial curve, poor fit]"},
      {"smiles": "COc1cccc(CN2CC[C@H]3COC(=O)N3c3cc(F)ccc3C2)c1", "activity change, negative = inhibition": "inactive: -0.622% [at 176 µM]"},
      {"smiles": "CCC1(C)Cc2nc3sc4c(=O)n(CC(=O)NCc5ccccc5)cnc4c3cc2CO1", "note": "(centres undefined)", "activity change, negative = inhibition": "inactive: 5.46%"},
      {"smiles": "CC1(C)OC(=O)C2=C(C[C@@H](CCc3ccccc3)O[C@@H]2c2ccc(Cl)cc2)O1", "Potency": "inconclusive: 141 µM [inhibitor, single point]"},
      {"smiles": "CCCc1nc(SCc2cc(=O)c3ccc(C)c(C)c3[nH]2)n[nH]1", "activity change, negative = inhibition": "inactive: -21.5%"},
      {"smiles": "COCCN(C)CCCc1ccccc1", "Potency": "inconclusive: 44.7 µM [inhibitor, partial curve, poor fit]"},
      {"smiles": "S=C(NNc1ccnc2cc(Cl)ccc12)Nc1ccccc1Cl", "Potency": "inconclusive: 28.2 µM [inhibitor, partial curve, poor fit]"}
    ]}
  ]
}
